Data from US12605455B2, “CAR peptide for improved coronavirus survival” (Vascular Biosciences, priority 2020, dated 2026).
Read-outs that look alike come from different tables or passages of the source. For some assays here: Part of at least one peptide drawing is inferred or uncertain, most often the ends. For some assays here: At least one compound was matched to its structure with a doubt left. Bridge positions count the residues as written; N and C are the ends. Peptide text beside a SMILES is read from it.

Key:
[1] = tested on: Chinese hamster ovary cells; test: CAR binding to Chinese hamster ovary cells treated with heparinase I and III; type: cell-based
LPS-induced endotoxemia = test: Survival after LPS-endotoxemia, hydrocortisone with or without CAR; type: in vivo, mice; conditions: CAR alone 20 mg/kg; hydrocortisone 0.2 mg/kg (Low-HCT)
Experimental: 10-week-old C57BL/6 male mice were given an intraperitoneal (IP) injection of Escherichia coli 055:B5 LPS 20 mg/kg. Mice were injected i.p. with 20 mg/kg lipopolysaccharide (LPS). Five different treatments were initiated: saline only group (Untreated, n=31); CAR peptide-alone administration 20 mg/kg ([…]) (CAR alone, n=20); hydrocortisone 0.2 mg/kg or 10 mg/kg Low-HCT or High-HCT, n=20, 28 respectively); and CAR 20 mg/kg co-administered with hydrocortisone 0.2 mg/kg (Low HCT+CAR, n=20). Hydrocortisone and/or CAR peptide were injected intraperitoneally at 3, 12 and 24 hours after LPS administration.

[2] = tested on: hypertensive pulmonary vessels; conditions: cited from earlier work
SARS-CoV2 [3] = type: in vivo, K18-hACE2 transgenic mice; conditions: alone or with CAR 8 mg/kg ip
SARS-CoV2 [4] = type: in vivo, K18-hACE2 transgenic mice; conditions: liposome encapsulated or CAR-liposome encapsulated
SARS-CoV2 [5] = type: in vivo, K18-hACE2 transgenic mice; conditions: liposome encapsulated or CAR-liposome encapsulated; remark: listed apart in the source
SARS-CoV2 [6] = type: in vivo, K18-hACE2 transgenic mice; conditions: remdesivir 25 mg/kg/dose ip every 12 hours, alone or with CAR 8 mg/kg ip; from 1 dpi

For `C[C@@H]1NC(=O)[C@@H](N)CSSC[C@@H](C(=O)O)NC(=O)[C@H](CC(=O)O)NC(=O)[C@H](CCCCN)NC(=O)[C@H](CC(N)=O)NC(=O)[C@H](CCCCN)NC(=O)[C@H](CO)NC(=O)[C@H](CCCNC(=N)N)NC1=O` [CAR, CARSKNKDC] (H-CARSKNKDC-OH; disulfide 1-9; N-terminus and C-terminus assumed), the “binding of CAR to Chinese hamster ovary cells” value [1] is given as “greatly reduced”, the “survival difference versus untreated sepsis 48 hours after LPS” value (LPS-induced endotoxemia) is given as “no significant survival difference” and the “homing of CAR” value ([2]; pulmonary arterial hypertension (Urakami et al. 2011)) is given as “home to hypertensive pulmonary vessels, where it penetrates the damaged endothelium”. For the same compound, the “pulmonary-specific vasodilation efficiency of co-administered vasodilators” value ([2]; three different classes of vasodilators, rat models of pulmonary hypertension (Toba et al. 2014)) was “doubled”.
With `C[C@@H]1C[C@H]2[C@@H]3CCC4=CC(=O)C=C[C@]4(C)[C@@]3(F)[C@@H](O)C[C@]2(C)[C@@]1(O)C(=O)CO` [Dex, dexamethasone] the “survival at 7 dpi” value (SARS-CoV2 [3]; Dexamethasone 0.15 mg/kg/dose ip every 24 hours, from 2 dpi) was “some improvements in survival”, the “survival at 7 dpi” value (SARS-CoV2 [4]; dexamethasone 0.15 mg/kg/dose via IT installation every 24 hours: free) was “some improvements in survival” and the “survival at 7 dpi” value (SARS-CoV2 [5]; dexamethasone 0.15 mg/kg/dose iv every 24 hours: free) was “some improvements in survival”.
With `C[C@H]1C[C@@H]2[C@H]([C@@H](O)C[C@@]3(C)[C@H]2CC[C@]3(O)C(=O)CO)[C@@]2(C)C=CC(=O)C=C12` [MPS, methylprednisolone] the “survival at 7 dpi” value (SARS-CoV2 [3]; methylprednisolone 2 mg/kg ip every 12 hours) was “some improvements in survival”, the “survival at 7 dpi” value (SARS-CoV2 [4]; MPS 2 mg/kg/dose via IT installation every 24 hours: free) was “some improvements in survival” and the “survival at 7 dpi” value (SARS-CoV2 [5]; MPS 2 mg/kg/dose iv every 12 hours: free) was “some improvements in survival”.
For `CCC(CC)COC(=O)[C@H](C)N[P@](=O)(OC[C@H]1O[C@@](C#N)(c2ccc3c(N)ncnn23)[C@H](O)[C@@H]1O)Oc1ccccc1` [RDV, remdesivir], the “survival at 7 dpi” value (SARS-CoV2 [6]) was “some improvements in survival”.
